In patent US20030175250A1, “Isolated peptides which bind to HLA molecules and uses thereof” (priority 2002, published 2003):
Entries after “also recorded” stand apart in the source; their conditions may differ. Not every detail of the peptide structures is certain; ends, links or a residue may be inferred. No end group written: not given here.

Experiments:
Assay type in all cases: cell-based, human
[1] = tested on: Ad2/ESO presensitized CD8+ NW1352 T cells; assay: ELISPOT (IFN-gamma) with Ad2/ESO presensitized CD8+ NW1352 T cells; conditions: T2.A3 target cells pulsed with 9-mer peptide; FIG. 2
[2] = tested on: CD8+ T cells from patient UC-98; assay: ELISPOT with presensitized CD8+ T cells from patient UC-98
Description: CD8+ T lymphocytes were separated from peripheral blood lymphocytes (PBLs) of patient UC-98 by antibody-coated magnetic beads (Dynabeads; Dynal, Oslo, Norway) and seeded into round-bottomed 96-well plates (Corning, N.Y.) at a concentration of 5×10^5 cells per well in RPMI medium 1640 supplemented with 10% human AB serum (NABI, Boca Raton, Fla.), L-glutamine (2 mM), penicillin (100 U/ml), streptomycin (100 μg/ml), and 1% nonessential amino acids. As antigen presenting cells (APCs), PBLs depleted of CD8+ T cells were pulsed with 10 μM peptide overnight at 37° C. in 250 μl serum-free medium. Pulsed APCs were then washed, irradiated and added to the plates containing CD8+ T cells, at a concentration of 1×10^6 APCs per well. After 8 hours, IL-2 (10 U/ml) and IL-7 (20 ng/ml) were added to culture wells, and this step was repeated every three to four days, until the cells were harvested for testing.
Target cells, EBV-transformed B lymphocytes and melanoma cell lines SK-MEL-106 and SK-MEL-139, were cultured in RPMI medium 1640 supplemented with 10% FCS, L-glutamine (2 mM), penicillin (100 U/ml), streptomycin (100 μg/ml), and 1% nonessential amino acids. HLA class I allele expression was determined by high-resolution DNA typing. For ELISPOT assays, the target cells were pulsed overnight with 10 μM peptide or infected with 30 pfu/cell v.v.WT or v.v.ESO, in 250 μl X-VIVO-15 (Bio-Whittaker).
For ELISPOT assays, flat-bottomed, 96-well nitrocellulose plates were coated with IFN-γ mAb (2 μg/ml) and incubated overnight at 4° C. After washing with RPMI, plates were blocked with 10% human AB type serum for 2 h at 37° C. Presensitized CD8+ T cells (5×10^4 and 1×10^4) and 5×10^4 targets cells (peptide-pulsed or v.v.ESO infected EBV-B, or tumor cells) were added to each well and incubated for 20 h in RPMI medium 1640 without serum. Plates were then washed thoroughly with water containing 0.05% Tween 20 to remove cells, and biotin labeled IFN-γ mAb (0.2 μg/ml) was added to each well. After incubation for 2 h at 37° C., plates were washed and developed with streptavidin-alkaline phosphatase (1 μg/ml; Mabtech) for 1 h at room temperature. After washing, substrate (5-bromo-4-chloro-3-indolyl phosphate/nitroblue tetrazolium; Sigma) was added and incubated for 5 min.
We previously established that there is a correlation between antibody and CD8+ T cell responses to NY-ESO-1 in cancer patients (Jäger et al., Proc. Natl. Acad. Sci. USA 97:4760 (2000) incorporated herein by reference). To determine NY-ESO-1 seropositive, HLA-A2 positive patient UC-98 would follow the same pattern, we presensitized CD8+ T cells as described above with NY-ESO-1 peptide p157-165, a known HLA-A2-restricted epitope, Jager et al., J. Exp. Med. 187(2):265-270 (Jan. 19, 1998). […]

[3] = tested on: NY-ESO-1 p94-102 presensitized NW1274 CD8+ T cells; assay: ELISPOT with p94-102 presensitized NW1274 CD8+ T cells against PHA blasts of different HLA types; conditions: peptide pulsed PHA blasts, FIG. 7
[4] = tested on: CD8+ T cell NW1539-CTL-1/15; assay: ELISPOT with CD8+ T cell NW1539-CTL-1/15
[5] = tested on: CD8+ T cells from 4 NY-ESO-1 seropositive patients sharing the HLA-A3 allele; assay: ELISPOT with presensitized CD8+ T cells of 4 patients sharing the HLA-A3 allele against T2.A3 cells; conditions: T2.A3 cells pulsed with peptide; 4 patients sharing HLA-A3; FIG. 4; listed as p92-102

MPFATPMEA [p94-102, MPFATPMEA]
recognition in ELISPOT [1]: recognize | lowest peptide concentration recognized in titration assays ([2]; T cells presensitized with p80-109, B-EBV targets pulsed at various concentrations, FIG. 10C): 100 pM | recognition in ELISPOT ([2]; T cells presensitized with p80-109, histocompatible B-EBV targets pulsed with peptides at 10 μM, FIG. 10A, 10B): minimal sequences detected | recognition in ELISPOT ([2]; one HLA-B51+ target pulsed with peptide, FIG. 11): recognized, but to a lower extent | recognition in ELISPOT ([2]; partially histocompatible HLA-B35+ target cells pulsed with peptide, FIG. 11): recognized | recognition in ELISPOT ([3]; HLA-B51+ target cells NW1725 and NW1274): strong recognition; also recorded: could recognize | recognition in ELISPOT ([3]; HLA-B51 negative target cells MZ7 and NW1726): No CD8+ T cell reactivity; also recorded: but not | recognition in ELISPOT ([4]; autologous monocyte-derived APC pulsed or infected, patient NW1539, FIG. 3): specific recognition; also recorded: recognized | recognition in ELISPOT ([4]; peptide pulsed T2 (B51+) and T2.A3 (A3+, B51+) cells, FIG. 6): recognized with comparable efficacy | CD8+ T cell reactivity in ELISPOT [5]: recognized
